Here are results for 39 compounds from PubChem BioAssay AID493014 (National Center for Advancing Translational Sciences (NCATS), 2011).

The assay can be described thus: qHTS Assay to Find Inhibitors of Chronic Active B-Cell Receptor Signaling. The note with it: ABC-DLBCL IkBa-CBG/CBR reporter, luminescence ratio (green luciferase fused to IkBa over red control in TMD8 lymphoma cells), 4 h. An outline of the steps:
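Compounds up to 46 uM were incubated four hours with TMD8 cells whose green CBG68 luciferase is fused to IkappaBalpha; red CBR luminescence normalised the signal, and concentration-effect curves were fitted to fusion, red and ratio data.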

Where [1] appears, read: measured here: CBR red luminescence, cell number.
The mark [2] stands for this setting: measured here: IkBa-CBG green luminescence.

The list shows a part of the results. Shown are side measurements of this screen, not its main read-out; they come without a call. The list favours compounds with an active or inconclusive main result. The note in brackets gives the kind of curve behind each potency; many fits are weak.

As to `CCOC(=O)C1=C(COC(=O)CCOc2ccc(C)cc2)NC(=O)NC1C` (stereo not drawn), the AC50 was 10.3 µM [falling, partial curve] under setting [1] and 11.6 µM [rising, partial curve, poor fit] under setting [2]. Take `COc1ccc(C(=O)COC(=O)C(CCCCN2C(=O)C3C4C=CC(C4)C3C2=O)N2C(=O)C3C4C=CC(C4)C3C2=O)cc1` (stereo not drawn): the AC50 under setting [1] was 14.6 µM [rising, partial curve].

With `CCC1CSC(Nc2ccc(C(=O)/C=C/c3ccc(OC)c(OC)c3)cc2)=N1` (stereo not drawn), under setting [1], the AC50 is 18.4 µM [falling, single point].

On to `CCOP(=O)(OCC)c1nc(-c2ccccc2)oc1N1CCCCC1`, for which the AC50 under setting [1] was 3.55 µM [rising, full curve, poor fit]. With `O=C(CSc1n[nH]c(=O)[nH]c1=O)N/N=C/c1ccccc1O`, under setting [1], the AC50 is 23.1 µM [rising, single point]. Same read-out and setting: as for `O=C(CSc1nc2ccccc2o1)Nc1nc2ccc(Br)cc2s1`, the figure is 0.366 µM [falling, full curve, poor fit]; as for `O=C1N=c2ccccc2=C1c1sc(NS(=O)(=O)c2ccccc2)nc1O`, 10 µM [falling, partial curve, poor fit]; as for `CCc1c(C)sc(NC(=O)c2cccs2)c1C#N`, 2.31 µM [rising, full curve]. As for `CN(NS(=O)(=O)c1ccc(Cl)cc1)c1nc(C(F)(F)F)nc2ccccc12`, under setting [2], the AC50 is 15.8 µM [rising, partial curve, poor fit]. For `CC1Cc2ccccc2N1C(=O)C1CCCN(S(=O)(=O)c2cccc3cccnc23)C1` (stereo not drawn), the AC50 under setting [1] is 0.092 µM [falling, full curve, poor fit].

Turning to `C[C@H](CO)N1C[C@H](C)[C@@H](CN(C)Cc2ccc3c(c2)OCO3)Oc2c(NS(C)(=O)=O)cccc2C1=O`, under setting [1], the AC50 was 8.2 µM [rising, partial curve, poor fit].

On to `Cc1c(CCC(=O)NCCCn2ccnc2)c(=O)oc2c(C)c3oc4c(c3cc12)CCCC4`, for which the AC50 reads like this: under setting [1], 0.631 µM [rising, full curve, poor fit]; under setting [2], 2 µM [falling, full curve, poor fit]. In the case of `COc1cccc(NC(=O)CC(=O)c2ccccc2)c1`, the AC50 under setting [1] is 35.5 µM [falling, single point].

With `Cn1c(=N)n(CC(O)c2ccccc2)c2ccccc21` (stereo not drawn), the AC50 under setting [1] is 14.6 µM [rising, single point]. Turning to `CCOC(=O)CNC(=O)c1cc2c(=O)[nH]c3ccc(C)cc3c2s1`, the AC50 under setting [1] was 2.82 µM [rising, single point]. The same measure, in the same setting: under `Cc1c(C(=O)N(Cc2ccc(N(C)C)cc2)C2CCS(=O)(=O)C2)oc2ccccc12` (stereo not drawn) stands 0.112 µM [rising, full curve, poor fit]. In the case of `Cc1ccc(O)c(N=Nc2nccs2)c1`, the AC50 under setting [1] was 23.1 µM [rising, single point] and the concentration at half-maximal activity (AC50) under setting [2] was 13 µM [falling, partial curve]. Turning to `Cc1ccc(Nc2ncnc3c2oc2ccccc23)cc1`, the AC50 under setting [1] was 13 µM [falling, partial curve, poor fit]. On to `CC1=C(c2ccccc2)[N+](=O)C2(CCCCC2)N1[O-]`, for which the AC50 under setting [1] was 12.6 µM [falling, single point]. For `Clc1ccc(OCCOCCN2CCc3ccccc3C2)c(Cl)c1`, the AC50 under setting [1] was 18.4 µM [falling, partial curve, poor fit].

As for `O=C(NC(=S)Nc1ccccc1F)c1ccc(Br)o1`, the AC50 under setting [1] was 1 µM [rising, full curve, poor fit]. Take `Cc1ccc(-c2nnc(Nc3ccc(Br)cc3)c3ccccc23)cc1S(=O)(=O)N1CCN(C)CC1`: the AC50 under setting [1] was 2 µM [falling, full curve].

As to `CO/N=C/C(=N\Nc1ccc(OC)cc1)C(=O)c1ccc(OC)cc1`, the AC50 under setting [1] was 16.4 µM [rising, single point]. Turning to `NCCCn1c(C(=O)c2cc(Cl)c(N)c(Cl)c2)c2ccc([N+](=O)[O-])cc2[n+]1[O-]`, the AC50 under setting [1] was 10.3 µM [falling, partial curve].

As to `COc1cc([N+](=O)[O-])cc(/C=N/NC(=O)c2ccc(C)nc2)c1O`, under setting [1], the AC50 was 25.9 µM [falling, partial curve, poor fit]. For `CC(Oc1ccc(Br)cc1)C(=O)Nc1ccc(S(=O)(=O)Nc2nccs2)cc1` (stereo not drawn), the AC50 under setting [1] is 11.2 µM [falling, single point]. As to `CN(CC(=O)Nc1sccc1C#N)Cc1ccccc1`, the AC50 under setting [1] was 6.51 µM [rising, full curve, poor fit]. The same measure, in the same setting: as for `CN(c1cccc(NC(=O)c2ccc(CN3CCc4ccccc4C3)cc2)c1)S(C)(=O)=O`, the figure is 35.5 µM [falling, single point].

For the compound `CC(C)(C)N(Cc1ccccc1)C(=O)COC(=O)c1ccc(Br)o1`, under setting [1], the AC50 is 1.64 µM [rising, full curve]. On the same count and under the same terms, as for `CN(C)S(=O)(=O)N1CCC(CO)(CCc2ccccc2)CC1`, the figure is 35.5 µM [rising, single point]; as for `O=[N+]([O-])c1cccnc1Oc1ccc(OCc2ccccc2)cc1`, 7.94 µM [rising, partial curve, poor fit]. For `O=c1[nH]cnc2c1C(c1ccccc1[N+](=O)[O-])c1c(nc[nH]c1=O)O2`, under setting [1], the AC50 is 0.058 µM [falling, full curve, poor fit]. As for `CCNC(=S)N1CCN(CC(=O)Nc2ccc(Br)cc2)CC1`, the AC50 under setting [1] was 2.91 µM [falling, partial curve, poor fit]. The same measure, in the same setting: under `C=C(C)COc1ccc(-c2[nH]ncc2-c2ccccc2OC)c(O)c1` stands 0.398 µM [rising, full curve, poor fit]; under `O=C(CC1Sc2ncnn2C1=O)Nc1ccc(Cl)cc1` (stereo not drawn), 10 µM [falling, partial curve, poor fit]. For `COc1ccccc1CNC(=O)c1ccccc1OCc1ccc(F)cc1`, the AC50 under setting [1] was 1.64 µM [falling, full curve]. Regarding `CCN1C(=O)c2cccc3c(S(=O)(=O)Nc4ccccc4O)ccc1c23`, the AC50 under setting [1] is 20 µM [rising, partial curve] and the AC50 under setting [2] was 10 µM [falling, partial curve]. As to `CCc1cc(C(=O)NNC(=S)Nc2ccccc2C)cs1`, under setting [1], the AC50 is 0.013 µM [falling, full curve, poor fit]. Take `Cc1ccc(-c2ccc(/C=N/n3cnnc3)o2)cc1`: the AC50 under setting [1] is 3.16 µM [rising, full curve, poor fit].
